# Experimental data published in patent US20130244239.
# Construct, isoform or probe ends are uncertain for at least one entry. Results from cells or extracts need not show a direct contact. For part of these data: A negative result means that nothing was seen under these conditions. For part of these data: Weaker means in comparison with the reference protein, sequence or condition of that experiment.
# Columns and labels:
# Test in all cases: ELONA
# [1] = system: H-GFP (His-Xpress fusion lacking T7 leader, GFP); details: binds, lower than HTX and HT; protein in a lysate after overexpression; label: 3'-poly A (20) hybridised to biotin-T20
# [2] = system: T-GFP (T7 leader-GFP, no His tag); details: no His tag; protein in a lysate after overexpression; protein details: T7 gene 10 leader, no His tag, GFP from TAKARA; label: 3'-poly A (20) hybridised to biotin-T20
# [3] = system: HT-GFP (His-T7 leader-GFP); details: protein in a lysate after overexpression, label: 3'-poly A (20) hybridised to biotin-T20
# [4] = system: TX-GFP (T7 leader-Xpress-GFP, no His tag); details: no His tag; protein in a lysate after overexpression; label: 3'-poly A (20) hybridised to biotin-T20
# [5] = system: HTX-GFP (His-T7 leader-Xpress-GFP); details: HTX about equal to HT; anti-GFP capture, 4 C, tRNA competitor; protein in a lysate after overexpression; label: 3'-poly A (20) hybridised to biotin-T20
Sequence,binding result [1],binding result [2],binding result [3],binding result [4],binding result [5],"binding result ([3]; anti-GFP capture, variant of shot47)"
GGGACGCUCACGUACGCUCACGUCCGAUCGAUACUGGUAUAUUGGCGCCUUCGUGGAAUGUCAGUGCCUGGACGUGCAGU [shot47],binds more weakly,no binding,binds,no binding,binds,
GGGUAUAUUGGCGCCUUCGUGGAAUGUCAGUGCCUGG [shot47sss],,,,,,binds
